Consider 42 sequences from paper PMC7819943, “Rice protein-binding microarrays: a tool to detect cis-acting elements near promoter regions in rice”.

Amino acid sequences for entries named in this document (tags omitted).
UniProt Q0JBA9, entry or part of it: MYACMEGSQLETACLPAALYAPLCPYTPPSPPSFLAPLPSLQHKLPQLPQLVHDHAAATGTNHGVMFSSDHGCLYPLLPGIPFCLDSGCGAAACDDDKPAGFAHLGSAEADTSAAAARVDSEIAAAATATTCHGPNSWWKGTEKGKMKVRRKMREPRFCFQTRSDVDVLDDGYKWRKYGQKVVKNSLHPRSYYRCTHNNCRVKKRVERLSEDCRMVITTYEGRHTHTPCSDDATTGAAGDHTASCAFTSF

Some of the results follow.

The assay addresses OsWRKY34 (Oryza sativa, UniProt Q0JBA9 1-250). Briefly: protein-binding microarray (RPBM); PBS, 2% BSA, 51.3 ng/ul salmon testes DNA, 50 uM zinc acetate, 200 nM TF, 25 C, 1 h; high values mean tight binding. Conditions: protein: recombinant; tags: N-terminal polyhistidine and DsRed monomer fusion (pET32a); label: CyDye5-dUTP incorporated in the synthesized complementary strand; 3' TTTTT single-stranded linker to array surface; dsDNA, one strand shown. The method in brief:
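Binding signal here means per-feature fluorescence intensity in arbitrary units. The values were read on an Axon 4000B scanner after a custom Agilent array, double-stranded by primer extension with Cy5-dUTP, was incubated with 200 nM protein at 25 °C for 1 h in PBS with 2% BSA, salmon testes DNA and 50 µM zinc acetate, then washed. The proteins were transcription factors with an N-terminal polyhistidine tag and DsRed, expressed in E. coli BL21-CodonPlus and purified on Ni–NTA.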
Turning to “ACGTCTTCTGCATGATCATCGTGCGCCGTCCCAATAATTCCGGAGTCACCTAGTGCAG”, the binding signal is 11300 fluorescence intensity (a.u.).

For “GATTGGCTATAAGTTTATCCTTATTTTCTTCATCCTCTCTCGGAGTCACCTAGTGCAG”, the binding signal was 12900 fluorescence intensity (a.u.).

As for “GTTGGGCTTCCTTATTGGGTTGGGCTACCTGTCTGATTTTCGGAGTCACCTAGTGCAG”, the binding signal was 16600 fluorescence intensity (a.u.).

“ATGTTAACTTGCTCACTATATGGTTCATCACGTCAGTGTCCGGAGTCACCTAGTGCAG”: the binding signal is 8090 fluorescence intensity (a.u.).

As to “GCTGAGGTTGTTCTAGACATGGCTGTGTTATGCCTTTTGTCGGAGTCACCTAGTGCAG”, the binding signal is 9590 fluorescence intensity (a.u.).

Take “AGCTTTCCCTTGTTAAGTACCGAGCTTTGATTGTTTGTTACGGAGTCACCTAGTGCAG”: the binding signal is 8610 fluorescence intensity (a.u.).

For the sequence “ACCGGCACCTATAGGCCTTTTTCGGGTTTTCCCACCTCCACGGAGTCACCTAGTGCAG”, the binding signal is 8550 fluorescence intensity (a.u.).

As for “CCCCGCTAAGCGCCCACCACCTGTTCGACGGAAACCCCAGCGGAGTCACCTAGTGCAG”, the binding signal is 8200 fluorescence intensity (a.u.).

For “CTCCTAATAATATTACACATATCTGCAAAGTCTCATATTCCGGAGTCACCTAGTGCAG”, the binding signal was 8180 fluorescence intensity (a.u.).

For the sequence “CTGTTACCGGTTGACCAAAACAAGGCATATATCGAAATTCCGGAGTCACCTAGTGCAG”, the binding signal is 8070 fluorescence intensity (a.u.).

For “GCTGCTGATTTCTGAGTTTTTTTTTTCACAAAGACCTGACCGGAGTCACCTAGTGCAG”, the binding signal was 8030 fluorescence intensity (a.u.).

For the sequence “ACCACACGAACGCTTCGTAGATGACACAGGCACATACATCCGGAGTCACCTAGTGCAG”, the binding signal is 8060 fluorescence intensity (a.u.).

For the sequence “GTGGTGGTGCTGTTGGATTAAGAGGTTTCTTTCAGAGATTCGGAGTCACCTAGTGCAG”, the binding signal was 9260 fluorescence intensity (a.u.).

For the sequence “TTGGATCCCCGCCAAACATTGCCTCGCCAAACATGCGGCTCGGAGTCACCTAGTGCAG”, the binding signal is 8050 fluorescence intensity (a.u.).

Consider “CATCTCCGCCGGCCGCCGTCCTCGCCATCTTCGCCGTCCTCGGAGTCACCTAGTGCAG”, for which the binding signal is 12600 fluorescence intensity (a.u.).

On to “TCCGGAACGAAACGGCGGGGTTTCTTTTTCTTTTGTTTCGCGGAGTCACCTAGTGCAG”, for which the binding signal is 9400 fluorescence intensity (a.u.).

With “TGTGCGTTTAGAACTTTCGGCCCATCTCCATCTATAAAATCGGAGTCACCTAGTGCAG”, the binding signal was 8360 fluorescence intensity (a.u.).

In the case of “GTGCTACTCCATATACGTATGGCTGGTTTGGTTGGTTGAGCGGAGTCACCTAGTGCAG”, the binding signal is 21400 fluorescence intensity (a.u.).

Regarding “AACTCATCGTGGCCCACAATCGCGCTGTTTTTATTGACCACGGAGTCACCTAGTGCAG”, the binding signal was 8620 fluorescence intensity (a.u.).

For the sequence “TGTGTGAATGTGTGATCCGTTGCCTAGAGTTAATTTTATACGGAGTCACCTAGTGCAG”, the binding signal is 8260 fluorescence intensity (a.u.).

For the sequence “CAAACTGTTTGGTCAAAGTCAAACTGTTTCAAGTTTGACTCGGAGTCACCTAGTGCAG”, the binding signal is 8070 fluorescence intensity (a.u.).

Consider “CAGGCCACCGTCTCTGCTTGACTGCTTCCTGCAACCATCTCGGAGTCACCTAGTGCAG”, for which the binding signal was 8460 fluorescence intensity (a.u.).

Turning to “AATGGTTTTATCGTTTTACGTGTGTACACCACTTATATATCGGAGTCACCTAGTGCAG”, the binding signal was 8060 fluorescence intensity (a.u.).

Consider “AGCACTATTGATGGTTGGTGGTAAGTGGTTTTCAAAAGATCGGAGTCACCTAGTGCAG”, for which the binding signal was 9400 fluorescence intensity (a.u.).

As for “AACTTTTATGTTCATGACTTTTTCAGCTGAAATTATTTACCGGAGTCACCTAGTGCAG”, the binding signal was 8420 fluorescence intensity (a.u.).

As to “AACCACACCACACTGGTCTCTACCTTCCTTTCTTGCTTTCCGGAGTCACCTAGTGCAG”, the binding signal was 8610 fluorescence intensity (a.u.).

Turning to “CATCCCTCCGGAACCTCCACTACTACTCGCCCCACCAATGCGGAGTCACCTAGTGCAG”, the binding signal is 8470 fluorescence intensity (a.u.).

For the sequence “GAGTAGAGGTGGGAGGAAGCGGTGGTGTGGTGGGGTGGGGCGGAGTCACCTAGTGCAG”, the binding signal was 22100 fluorescence intensity (a.u.).

Turning to “AAGACGAATGATCAAACACGTACTAAAAAAGTCAACGGTGCGGAGTCACCTAGTGCAG”, the binding signal is 11600 fluorescence intensity (a.u.).

Consider “ACTGCCTTTGTTATATTACCACATGCACACACTCTCTCTCCGGAGTCACCTAGTGCAG”, for which the binding signal is 9200 fluorescence intensity (a.u.).

“GGACCGTTCTTGCTTCTTTTATATATGCATTTGAGTGAAGCGGAGTCACCTAGTGCAG”: the binding signal is 9110 fluorescence intensity (a.u.).

In the case of “CTTTTACTATTGCGCATCACCTCTTTGCACTGCGTTATTACGGAGTCACCTAGTGCAG”, the binding signal is 11800 fluorescence intensity (a.u.).

“CTTTCCAACGTTGGTGAATCATGATCGGTCAATTTGCAACCGGAGTCACCTAGTGCAG”: the binding signal is 8740 fluorescence intensity (a.u.).

Consider “TGCAATGTACTTTGCATGCGTCACACGCCCTTGTCAAGAACGGAGTCACCTAGTGCAG”, for which the binding signal was 8160 fluorescence intensity (a.u.).

Turning to “CTTTAATCTACTACGTTTTCTTAGCTCAAAACACACACAACGGAGTCACCTAGTGCAG”, the binding signal was 9060 fluorescence intensity (a.u.).

Consider “TTCTTGTATCTTTCTTGATGCAACCATCGATCCAACCATCCGGAGTCACCTAGTGCAG”, for which the binding signal was 8480 fluorescence intensity (a.u.).

For “TTTATTCCCTACCGCCGCTCCACCACTCGCTTCCCTTTTTCGGAGTCACCTAGTGCAG”, the binding signal was 10200 fluorescence intensity (a.u.).

Turning to “TTTACATTTTCTGTACTTTCTGGTCATCATTTGCTATTTTCGGAGTCACCTAGTGCAG”, the binding signal is 9580 fluorescence intensity (a.u.).

Take “AACTAAACACGGCCAATGTATTTCTAATATATATATATATCGGAGTCACCTAGTGCAG”: the binding signal is 8250 fluorescence intensity (a.u.).

Turning to “TTCCCATTCACAACTTTGCTGATTTTGTTTTTATTTTAGTCGGAGTCACCTAGTGCAG”, the binding signal was 8870 fluorescence intensity (a.u.).

With “ACTCACAAAGCAATACAAGTCTTTTCTGCACACTTTGTCCCGGAGTCACCTAGTGCAG”, the binding signal was 9630 fluorescence intensity (a.u.).

As to “GTCAACCGGGAATTTCCGTGGCCGTTTTTCTACTCCTTTCCGGAGTCACCTAGTGCAG”, the binding signal is 9040 fluorescence intensity (a.u.).
